Results taken from PMC6372715.
No constants are given. Whether binding was seen depends on the method and setting. In cells and extracts the contact can be indirect. Some entries that bind do so weakly or less than the wild type.

Sequences of proteins named here, by UniProt entry; tags and fusion partners are left off.
UniProt Q9UQC2: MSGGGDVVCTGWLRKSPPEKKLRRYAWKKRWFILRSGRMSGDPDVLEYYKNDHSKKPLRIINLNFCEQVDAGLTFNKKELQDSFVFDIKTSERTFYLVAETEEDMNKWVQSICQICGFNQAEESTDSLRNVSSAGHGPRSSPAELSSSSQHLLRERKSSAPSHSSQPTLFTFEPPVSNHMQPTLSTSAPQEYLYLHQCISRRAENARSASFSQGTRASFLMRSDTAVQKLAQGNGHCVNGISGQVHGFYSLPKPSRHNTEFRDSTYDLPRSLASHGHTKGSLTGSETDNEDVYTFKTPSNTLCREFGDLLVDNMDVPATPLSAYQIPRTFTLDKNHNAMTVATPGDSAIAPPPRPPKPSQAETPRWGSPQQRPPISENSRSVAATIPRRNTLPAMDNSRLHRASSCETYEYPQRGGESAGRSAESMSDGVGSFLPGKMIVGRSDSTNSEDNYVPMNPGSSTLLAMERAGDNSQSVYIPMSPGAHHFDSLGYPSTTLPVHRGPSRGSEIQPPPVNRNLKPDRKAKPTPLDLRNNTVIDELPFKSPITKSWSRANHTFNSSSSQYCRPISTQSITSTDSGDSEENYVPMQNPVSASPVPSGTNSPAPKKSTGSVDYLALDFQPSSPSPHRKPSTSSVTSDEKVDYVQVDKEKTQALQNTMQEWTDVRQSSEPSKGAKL

B1: 14-3-3β, P31946 1-246 (protein)
chain: MTMDKSELVQKAKLAEQAERYDDMAAAMKAVTEQGHELSNEERNLLSVAYKNVVGARRSSWRVISSIEQKTERNEKKQQMGKEYREKIEAELQDICNDVLELLDKYLIPNATQPESKVFYLKMKGDYFRYLSEVASGDNKQTTVSNSQQAYQEAFEISKKEMQPTHPIRLGLALNFSVFYYEILNSPEKACSLAKTAFDEAIAELDTLNEESYKDSTLIMQLLRDNLTLWTSENQGDEGDAGEGEN
B2: 14-3-3γ (protein, UniProt P61981 1-247)
chain: MVDREQLVQKARLAEQAERYDDMAAAMKNVTELNEPLSNEERNLLSVAYKNVVGARRSSWRVISSIEQKTSADGNEKKIEMVRAYREKIEKELEAVCQDVLSLLDNYLIKNCSETQYESKVFYLKMKGDYYRYLAEVATGEKRATVVESSEKAYSEAHEISKEHMQPTHPIRLGLALNYSVFYYEIQNAPEQACHLAKTAFDDAIAELDTLNEDSYKDSTLIMQLLRDNLTLWTSDQQDDDGGEGNN

Key:
[1] = target: T1, Grb2-associated binder 2 (Gab2) (human (endogenous in SKOV3 and OAW28)), Q9UQC2; assay: co-IP; immunoprecipitation with and without PIK3R1 depletion (Supplementary Fig. 5d/5e); cell line and precipitating antibody not told in the text shown; details: remark: other sources report otherwise
[2] = target: T1, Grb2-associated binder 2 (Gab2) (human …); assay: proximity ligation; Duolink PLA in fixed, permeabilised SKOV3 cells transfected with PIK3R1 siRNA or controls; pairs of primary antibodies; spots per nucleus counted; details: remark: other sources report otherwise
[3] = target: Grb2-associated binder 2 (Gab2) (human (endogenous in SKOV3 and OAW28)) (UniProt Q9UQC2); assay: as above
[4] = target: Grb2-associated binder 2 (Gab2) (human (endogenous in SKOV3 and OAW28)) (UniProt Q9UQC2); assay: co-IP; immunoprecipitation with and without PIK3R1 depletion (Supplementary Fig. 5d/5e); cell line and precipitating antibody not told in the text shown

Row | Binder | binding [1] | binding [2] | binding [3] | binding [4]
1 | B1 | binds | binds |  | 
2 | B2 |  |  | binds | binds
